Reference: patent publication US20180320217A1, “METHODS FOR SAMPLING AND MEASURING ORAL LAVAGE PROTEINS” (The Procter & Gamble Company, priority 2017, published 2018)

Test system: proteins in oral lavage
Assay: Abundance of proteins in human oral lavage (SomaLogic), TABLE 1
Assay type: in vivo
Conditions: for Means (Original Scale) High bleeder BL: high bleeders (gingivitis); for Means (Original Scale) High bleeder BL / Means (Original Scale) Low bleeder BL: baseline; for Means (Original Scale) Low bleeder BL: low bleeders (healthy); for Fold Change High bleeder W4 vs High bleeder BL / Fold Change High bleeder BL vs Low bleeder BL: oral lavage
[1] = abundance in oral lavage, high bleeders, week 4 of investigative products
[2] = high bleeders, week 4 of treatment vs baseline
[3] = high vs low bleeders at baseline
[4] = high bleeders vs low bleeders at baseline
[5] = week 4 of investigative products vs baseline, high bleeders

Substance | Means (Original Scale) High bleeder BL (abundance in oral lavage) | Means (Original Scale) High bleeder W4 [1] | Means (Original Scale) Low bleeder BL (abundance in oral lavage) | Fold Change High bleeder W4 vs High bleeder BL [2] | Fold Change High bleeder BL vs Low bleeder BL [3] | Fold Change High bleeder BL vs Low bleeder BL [4] | Fold Change High bleeder W4 vs High bleeder BL [5] | Means (Original Scale) High bleeder W4 (in vivo, po)
Proteasome subunit alpha type-2 | 3457 | 1924 | 1058 | 0.53 | 4.39 |  |  | 
Thrombospondin-4 | 1702 | 608 | 235 | 0.52 | 5.93 |  |  | 
Neutrophil collagenase | 21211 | 4713 | 9187 |  |  | 2.96 | 0.48 | 
Mitogen-activated protein kinase 1 | 1159 | 457 | 129 |  |  | 6.92 | 0.65 | 
C-reactive protein | 2929 | 1665 | 285 |  |  | 12.47 | 0.72 | 
Peptidyl-prolyl cis-trans isomerase F, mitochondrial | 9535 | 4115 | 534 | 0.58 | 17.73 |  |  | 
Protein E7_HPV18 | 493 |  | 200 | 0.66 | 2.26 |  |  | 249
Fatty acid-binding protein, heart | 6011 | 3062 | 3121 |  |  | 2.38 | 0.53 | 
Plexin-B2 | 72614 | 47158 | 32750 | 0.61 | 2.28 |  |  | 
Growth-regulated alpha protein | 3896 | 649 | 270 |  |  | 5.15 | 0.48 | 
Proteasome activator complex subunit 3 | 180 | 96 | 84 | 0.64 | 1.85 |  |  | 
SUMO-conjugating enzyme UBC9 | 69920 | 44705 | 14235 | 0.68 | 6.93 |  |  | 
Clusterin | 1890 | 1193 | 340 |  |  | 4.12 | 0.65 | 
Lumican | 35877 | 11354 | 5119 |  |  | 6.31 | 0.42 | 
Trypsin-1 | 1882 | 1012 | 423 | 0.61 | 3.94 |  |  | 
Dual specificity mitogen-activated protein kinase kinase 1 | 96 | 69 | 34 |  |  | 2.47 | 0.74 | 
Heat shock 70 kDa protein 1A | 87728 | 63420 | 16620 |  |  | 6.33 | 0.67 | 
Leptin | 952 | 526 | 179 |  |  | 4.44 | 0.61 | 
Ubiquitin-fold modifier-conjugating enzyme 1 | 7435 | 3140 | 2760 | 0.48 | 2.23 |  |  | 
Somatostatin-28 | 171 |  | 48 | 0.65 | 3.00 |  |  | 96
